Some entries share one result that the patent states for a list of compounds.
Test system: binding of p29^GFP vesicles to F-actin
Assay: modified in vitro actin binding assay with p29^GFP-labeled vesicles
Format: biochemical, rat
Settings: ~2-3 pmol polypeptide/50 μl mixture; 10 nM T4
Protocol: To define the specific region(s) of the myosin V tail that interact with the p29 vesicle, a series of deletion mutations were created based on the dominant negative effect of exogenous myosin V tail on p29 vesicle binding. Competition analysis of the myosin V deletion mutations on T4-dependent binding of p29 vesicles to F-actin was performed using a modified in vitro assay in which a GFP-tagged p29 fusion protein (p29^GFP) replaced the radioaffinity labeled native p29 (Farwell et al., 1990, J. Biol. Chem. 265:18546-18553; Farwell et al., 1993, J. Biol. Chem. 268:5055-5062). […]
Specific fluorescence at 510 nm (excitation, 488 nm) was then determined in the resuspended Triton-insoluble pellets.
To determine if the myosin V tail could be captured by the p29^GFP vesicle, an exogenous myosin V^tail was introduced into astrocytes constitutively expressing p29^GFP by infection with Ad5-ΔMyo V^tail virus particles and examined the effects of T4 on the binding of the myosin V^tail to immunopurified p29^GFP vesicles. […] Triton pellets were resuspended in 300 μl of PBS and fluorescence at 510 nm (excitation 488 nm) determined and relative fluorescence was reported as arbitrary units. […]
The quantity of each mutant protein synthesized was determined by [^35 S]-methionine incorporation. […]

## Δ myosin ^1830: myosin V tail deletion mutant, residues 1830-1852; vesicle-binding domain (NPSSLALETIQIPASLGLGFIAR)
  decrease of T4-dependent p29 binding to F-actin: more than 75%

Reference: US7374890B2, “Methods for identifying compounds that modulate ΔTRα2 activity” (University of Massachusetts, priority 2000, dated 2008)
